## Percent effect of library compounds

Chains of the proteins cited; added tags and fusions are not shown. Residues count along the entry.
UniProt Q8IDJ8, 1-583: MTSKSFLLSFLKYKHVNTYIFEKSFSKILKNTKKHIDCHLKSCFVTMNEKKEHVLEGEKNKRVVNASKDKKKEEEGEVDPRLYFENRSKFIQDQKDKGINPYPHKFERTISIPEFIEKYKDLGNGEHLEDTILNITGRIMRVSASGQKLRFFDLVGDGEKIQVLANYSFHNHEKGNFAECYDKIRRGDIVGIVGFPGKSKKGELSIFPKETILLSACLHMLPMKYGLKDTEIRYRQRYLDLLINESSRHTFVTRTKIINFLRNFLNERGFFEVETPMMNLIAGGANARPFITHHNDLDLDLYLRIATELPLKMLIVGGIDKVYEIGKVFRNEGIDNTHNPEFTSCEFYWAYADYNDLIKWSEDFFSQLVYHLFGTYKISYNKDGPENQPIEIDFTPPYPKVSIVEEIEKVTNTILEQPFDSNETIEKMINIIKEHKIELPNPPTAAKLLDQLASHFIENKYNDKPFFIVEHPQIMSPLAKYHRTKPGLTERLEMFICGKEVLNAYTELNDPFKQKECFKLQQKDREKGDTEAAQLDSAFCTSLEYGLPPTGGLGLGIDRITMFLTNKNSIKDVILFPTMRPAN
UniProt P9WFT3, whole entry: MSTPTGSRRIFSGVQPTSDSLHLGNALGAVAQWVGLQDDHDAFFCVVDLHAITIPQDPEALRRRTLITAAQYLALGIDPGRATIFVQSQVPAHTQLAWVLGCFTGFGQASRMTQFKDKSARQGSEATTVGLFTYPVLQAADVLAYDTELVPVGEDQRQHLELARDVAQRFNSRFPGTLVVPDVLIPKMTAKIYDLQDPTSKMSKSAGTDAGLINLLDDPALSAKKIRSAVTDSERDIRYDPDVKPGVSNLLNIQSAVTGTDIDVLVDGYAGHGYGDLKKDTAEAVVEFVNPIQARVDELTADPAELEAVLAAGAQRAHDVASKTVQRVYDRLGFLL
UniProt P9WPC5, whole entry: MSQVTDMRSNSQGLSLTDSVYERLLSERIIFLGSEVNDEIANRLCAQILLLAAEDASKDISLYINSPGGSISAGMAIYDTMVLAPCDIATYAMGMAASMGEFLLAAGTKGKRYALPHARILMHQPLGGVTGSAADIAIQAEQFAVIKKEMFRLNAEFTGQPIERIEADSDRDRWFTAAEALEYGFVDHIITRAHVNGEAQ
UniProt P9WPC3, whole entry partner: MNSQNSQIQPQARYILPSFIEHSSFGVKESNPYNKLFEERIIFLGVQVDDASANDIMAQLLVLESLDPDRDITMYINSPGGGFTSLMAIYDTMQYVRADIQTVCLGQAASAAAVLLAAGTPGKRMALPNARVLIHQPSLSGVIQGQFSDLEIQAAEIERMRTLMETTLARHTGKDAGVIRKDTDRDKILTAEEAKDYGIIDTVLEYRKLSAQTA

Measurements from “University of Dundee, Small-Polar-MMV Screening Library” (2021), ChEMBL document CHEMBL3988442.

PfKRS1: 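Lysine-tRNA ligase, Plasmodium falciparum 3D7 (UniProt Q8IDJ8). Enzyme assay of the cytosolic lysyl-tRNA synthetase in 384-well plates, read by luminescence. Concentration: 30 µM. Higher reads as stronger inhibition, judged from the few compounds that gave an IC50. About 69,000 compounds were tested under these conditions; 0.071% (about 49) showed 50% or more at least once.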
MtTrpRS: 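Tryptophan-tRNA ligase, Mycobacterium tuberculosis (UniProt P9WFT3). Enzyme assay of tryptophanyl-tRNA synthetase; the read-out is not stated. Concentration: 10 µM. Direction is not recorded; retested compounds ran higher, which suggests that high means inhibition. About 65,000 compounds were tested under these conditions; 0.098% (about 64) showed 50% or more at least once.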
ClpP1P2: 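ClpP1P2, Mycobacterium tuberculosis (UniProt P9WPC5 and UniProt P9WPC3). Protease assay of ClpP1P2, read by the AMC dye that it sets free. Concentration: 50 µM. Higher reads as stronger inhibition, judged from the few compounds that gave an IC50. Most other retested compounds had strongly negative values. Of about 69,000 compounds tested this way, about 10 (0.015%) reached 50% or more in at least one test.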

Values are the deposited “Percent Effect”, in %.
How 0% and 100% were set is not recorded. Most values in the screen are low, and negative values occur.
Compounds were drawn at random from those tested, without regard to their results.
A dash means the value is not listed here; it may have been measured.

structure | PfKRS1 | MtTrpRS | ClpP1P2
Cc1nnc2n1CCN(C(=O)c1cn(-c3ccccc3Cl)nn1)C2 | 4.974% | -2.385% | -0.0747%
Cc1cnc(N2C[C@@H]3CN(C4CCOC4)CCC[C@]3(C(=O)O)C2)nc1 (stereo not given in full) | 3.712% | - | -5.089%
Cn1cnnc1C1CCCN(Cc2nc(Cc3ccccc3)no2)C1 (stereo not given) | 5.001% | 2.352% | -12.76%
CN1CCC(C(=O)N2CCN(Cc3cccc(Cl)c3)CC2)CC1=O (stereo not given) | 9.248% | 0.5187% | -1.988%
COc1ccc(Br)c(C(=O)N2CCC(c3n[nH]c(C4CC4)n3)CC2)c1 | 3.387% | -0.6823% | 0.8415%
NC(=O)CN(Cc1ccc(Br)cc1)C(=O)c1ccccn1 | 4.77% | -2.167% | 1.504%
O=C(c1ccc2c(c1)OCO2)N1CCCC(Nc2ccc(F)cc2)C1 (stereo not given) | 4.89% | 3.551% | -9.154%
Cc1ccccc1N1CC2(CCN(S(=O)(=O)c3ccccc3)C2)CC1=O (stereo not given) | 1.794% | -1.163% | -12.17%
CC(C)Cc1nc(CN2CCOC(Cn3cncn3)C2)no1 (stereo not given) | 0.7777% | -6.671% | -6.544%
Cn1cc(CN2CCC(c3cc(COc4ccc(Cl)cc4)[nH]n3)C2)cn1 (stereo not given) | -1.708% | -5.469% | -17.36%
CC(C)NC(=O)CN1CCC(c2cccc(F)c2)C1 (stereo not given) | -3.492% | 5.336% | -6.069%
O=S(=O)(NCC1COc2ccccc2C1)N1CCCC1 (stereo not given) | 8.832% | -2.13% | -7.169%
CC(C(=O)Nc1ccccn1)n1ccc(C(F)(F)F)n1 (stereo not given) | 11.59% | 0.5424% | -11.31%
O=C(NCC1CC1)C1CN(C(=O)NC2CCCC2)Cc2cncn2C1 (stereo not given) | 2.38% | - | -4.467%
Cc1nn(CCC(=O)NC2CCCOC2)c(C)c1C (stereo not given) | -0.4958% | -3.329% | -10.62%
CCOC(=O)c1cccc(N2CCCC3(CCC(=O)N(C4CC4)C3)C2)n1 (stereo not given) | -1.232% | 6.314% | -18.9%
Cc1nc2cc(=O)[nH]n2c(C)c1CC(=O)NCCCc1ccccc1 | 2.241% | 3.12% | -34.45%
CC(C)n1c(=O)c2sccc2n(CC(=O)Nc2ccccc2)c1=O | 5.999% | 2.161% | 3.404%
Cn1ccc2ccc(C(=O)N3CCC[C@H]3C(=O)N3CCOCC3)cc21 | 5.912% | 4.374% | 0.539%
COc1ccc(N(C(=O)c2cnc(C)cn2)C(C)C)cc1F | -3.617% | 3.112% | 0.2674%
Cn1nccc1CCC(=O)NC1CCCN(c2ccccn2)C1 (stereo not given) | 0.1565% | -6.496% | -0.3233%
CC(Cn1ccnc1)NC(=O)NCCc1cccnc1 (stereo not given) | 2.322% | -9.88% | -17.18%
COc1ccc(NC2(C(=O)N3CCn4cncc4C3)CCCC2)cc1 | 3.4% | 3.401% | 15.17%
Cc1ccoc1C(=O)NC1CCN(CC(=O)N(C)c2ccccc2)CC1 | -1.111% | 15.14% | -8.568%
CCC(=O)N1CCCCC[C@@H]2[C@@H]1[C@H](c1cccc(F)c1)CN2C | -2.533% | 6.773% | 4.48%
Cc1cc(C)nc(N2CCC(CNC(=O)c3ccccn3)CC2)n1 | 1.943% | 4% | 0.6194%
Cc1ccc(C(=O)N2CC(C(N)=O)O[C@H](C)C2)c(F)c1 (stereo not given in full) | -2.064% | -2.621% | 5.85%
CC(C)(C)c1cc(NC(=O)CN(Cc2ccco2)Cc2cccs2)on1 | 11.29% | 3.565% | 14.28%
Cc1ccnc(C2(C)CCCN2S(=O)(=O)c2ccccc2)n1 (stereo not given) | -1.571% | 12.47% | -9.115%
COCCN1CCCC1Cn1nc(C)cc1C (stereo not given) | 2.468% | 6.032% | -22.3%
CN1CC[C@]2(CN(C(=O)c3ccc[nH]3)C[C@H]2c2ccccc2)C1=O | 2.645% | -3.03% | -4.621%
COc1ccc(NC(=O)NC(C)c2nc[nH]n2)cc1Cl (stereo not given) | 1.279% | 0.4397% | 0.6699%
Cc1cc(N2Cc3cnn(CCO)c3C2)nc(-c2ccccc2)n1 | 2.904% | -1.34% | -5.77%
c1cnc(N2CCC3(CCN(Cc4cccnc4)CC3)CC2)nc1 | 5.547% | -2.521% | -7.668%
CCc1nnc2n1CCN(CC(O)CN1CCC(C)CC1)C2 (stereo not given) | 7.93% | 0.2337% | -16.05%
N#Cc1cc(F)ccc1CN1CCCCC1Cn1cncn1 (stereo not given) | 3.041% | -1.83% | -9.056%
CCOc1ccccc1-n1c(C2CCC2)n[nH]c1=O | 4.071% | 4.438% | -8.377%
COc1ccc(OC)c([C@@H]2N[C@H](c3nccs3)Cc3ccsc32)c1 | 5.887% | -4.617% | -13.05%
CCN(C)C(=O)CCC(=O)c1cccs1 | 3.772% | -2.424% | -8.654%
CCc1nccn1-c1cncc(C2CCCN2Cc2cccnc2)n1 (stereo not given) | 1.593% | -0.9167% | 3.009%
O=C(NCCn1cccc1)C1CCC(=O)N(C2CCCC2)C1 (stereo not given) | 1.546% | 0.7508% | -11.47%
Cc1nccnc1-n1c(COCC(=O)O)nc2c(C)cccc21 | 5.32% | 0.764% | 2.303%
CC(C)N1CCC(CC(=O)N(C)CC(=O)c2ccc(O)cc2)CC1 | 9.81% | 0.2241% | -7.663%
CCN1CC[C@@]2(C(=O)N3CCOCC3)CCN(S(=O)(=O)CC)CC[C@@H]12 | 1.101% | -2.829% | 9.742%
Cc1ccc(C(=O)N2C[C@H]3CCC[C@@]3(COc3ccccn3)C2)nc1 | 2.997% | 1.395% | -1.826%
O=C(O)c1cccnc1CN1CCCCC1CCc1cccs1 (stereo not given) | 0.3726% | 10.18% | 13.39%
CC(C)CCC(=O)N1CCN(C(=O)c2ccc3nccn3c2)CC1 | 1.307% | -2.968% | -4.301%
COc1cc(C(N)=O)c(N(C)S(C)(=O)=O)cc1OC | 1.882% | -2.026% | -19.09%
Nc1nccnc1C(=O)NC1CCCN(Cc2c(F)cccc2F)C1 (stereo not given) | 1.834% | -1.534% | -47.9%
O=C(Cc1ccccn1)N1CCC2(CC1)CN(CC1CC1)C(=O)CO2 | 1.314% | -0.7319% | -0.2913%
Cc1ccc(N2CCCC3(COCCN(c4ccccn4)C3)C2)nn1 (stereo not given) | 2.559% | 6.302% | 22.16%
Cc1nnc2n1CCN(Cc1ncc(-c3ccccc3)o1)C2 | -1.299% | -6.089% | -30.35%
CC(O)C1CCN(Cc2cnc3c(-c4ccccc4)cnn3c2)CC1 (stereo not given) | 0.0836% | -10.4% | -9.226%
Cn1ccnc1CN1CCC2(CC1)CCN(c1ccccc1)C2=O | 2.88% | - | 10.62%
COCC(=O)Nc1ccc(-c2noc([C@@H]3CCCN3)n2)cn1 | 2.116% | -3.84% | 6.021%
Cc1ccc(C(=O)N2CCCC(CNS(=O)(=O)C(C)C)C2)cc1 (stereo not given) | 3.378% | -0.0783% | -11.91%
CSC(C)C(=O)N1CCCN(Cc2nccn2C)CC1 (stereo not given) | -0.7467% | -3.834% | -8.146%
Cc1occc1C(=O)N1CCO[C@H]2[C@H](OCc3ccccn3)CC[C@@H]21 | 2.336% | -2.654% | -6.925%
CC1(C)CN(C(=O)Nc2ccc(Cn3cccn3)cc2)CCO1 | 4.065% | -2.099% | -6.553%
Cc1cnn(CC2CCCN2CC(=O)N(C)CCC#N)c1 (stereo not given) | 1.92% | -5.96% | -12.49%
O=C(N1CCOCC1)N1CCC2(CCNC2)C1 (stereo not given) | 5.484% | 1.859% | -6.045%
O=C(c1ccsc1)N1CC[C@H]2C[C@@H](c3nnc(C4CC4)o3)O[C@@H]2C1 | 1.355% | -2.536% | -9.165%
COc1ccc(NC(=O)CCC2CCCN(S(=O)(=O)C3CC3)C2)cc1Cl (stereo not given) | 1.499% | -1.469% | 7.424%
O=C(Nc1cnn(Cc2ccc(F)cc2Cl)c1)C1CC1 | 3.667% | -0.5735% | 3.308%
CSC(C)CCN(Cc1ccccn1)Cc1sccc1C (stereo not given) | 3.255% | 2.419% | -24.63%
c1cc(CNc2ncc(-c3cnccn3)c([C@@H]3CCCO3)n2)ccn1 | 2.659% | -2.649% | -12.19%
Cc1ccc(OCCC(=O)NC2CC(=O)N(C)C2)cc1C (stereo not given) | 0.5908% | 1.11% | -5.025%
CCc1c(O)nc(SCC(=O)N(CC)CC)n(C(C)CC)c1=O (stereo not given) | 0.4496% | -0.000008% | -0.4274%
FC(F)(F)c1cccc(CN2CCOC[C@H](Oc3cccnc3)C2)c1 | -0.1765% | -3.263% | -1.059%
Cc1ccc(CN(CC(=O)NC2CCOCC2)c2ccc(F)cc2)o1 | 1.482% | -5.899% | -9.323%
CC(C)(C)OC(=O)N1CCCN1C(=O)c1cccc2cc[nH]c12 | 1.12% | -3.391% | -15.19%
CN(C)Cc1csc(-c2nccn2Cc2ccsc2)c1 | 2.437% | -7.119% | -4.223%

8 of the entries, repeated:

structure,PfKRS1,MtTrpRS,ClpP1P2
c1cnc(N2CCC3(CCN(Cc4cccnc4)CC3)CC2)nc1,5.547%,-2.521%,-7.668%
CN1CCC(C(=O)N2CCN(Cc3cccc(Cl)c3)CC2)CC1=O (stereo not given),9.248%,0.5187%,-1.988%
Cc1ccnc(C2(C)CCCN2S(=O)(=O)c2ccccc2)n1 (stereo not given),-1.571%,12.47%,-9.115%
CC(C)N1CCC(CC(=O)N(C)CC(=O)c2ccc(O)cc2)CC1,9.81%,0.2241%,-7.663%
NC(=O)CN(Cc1ccc(Br)cc1)C(=O)c1ccccn1,4.77%,-2.167%,1.504%
Cc1ccc(CN(CC(=O)NC2CCOCC2)c2ccc(F)cc2)o1,1.482%,-5.899%,-9.323%
COc1ccc(OC)c([C@@H]2N[C@H](c3nccs3)Cc3ccsc32)c1,5.887%,-4.617%,-13.05%
Cc1cnn(CC2CCCN2CC(=O)N(C)CCC#N)c1 (stereo not given),1.92%,-5.96%,-12.49%